Test results from publication PMC9769614.
No constants are given. Whether binding was seen depends on the method and setting. Binding seen in cells or lysates may run through a third protein. Binding can be weak; no strength is given. Where a sequence is shown, tags or fusion partners need not be part of it. Each block holds one molecule with its values, some of them ahead of it.

Experiments:
[1] = target: T1, Myc-tagged duck RIG-I (Myc-duRIG-I) (duck) (UniProt D3TI84); test: co-IP; HEK-293T cells cotransfected with Myc-duRIG-I and HA-duTRIM25, along with Flag-duTRIM35 or an empty vector; lysate immunoprecipitated with anti-Myc antibodies; immunoblot
T1 sequence: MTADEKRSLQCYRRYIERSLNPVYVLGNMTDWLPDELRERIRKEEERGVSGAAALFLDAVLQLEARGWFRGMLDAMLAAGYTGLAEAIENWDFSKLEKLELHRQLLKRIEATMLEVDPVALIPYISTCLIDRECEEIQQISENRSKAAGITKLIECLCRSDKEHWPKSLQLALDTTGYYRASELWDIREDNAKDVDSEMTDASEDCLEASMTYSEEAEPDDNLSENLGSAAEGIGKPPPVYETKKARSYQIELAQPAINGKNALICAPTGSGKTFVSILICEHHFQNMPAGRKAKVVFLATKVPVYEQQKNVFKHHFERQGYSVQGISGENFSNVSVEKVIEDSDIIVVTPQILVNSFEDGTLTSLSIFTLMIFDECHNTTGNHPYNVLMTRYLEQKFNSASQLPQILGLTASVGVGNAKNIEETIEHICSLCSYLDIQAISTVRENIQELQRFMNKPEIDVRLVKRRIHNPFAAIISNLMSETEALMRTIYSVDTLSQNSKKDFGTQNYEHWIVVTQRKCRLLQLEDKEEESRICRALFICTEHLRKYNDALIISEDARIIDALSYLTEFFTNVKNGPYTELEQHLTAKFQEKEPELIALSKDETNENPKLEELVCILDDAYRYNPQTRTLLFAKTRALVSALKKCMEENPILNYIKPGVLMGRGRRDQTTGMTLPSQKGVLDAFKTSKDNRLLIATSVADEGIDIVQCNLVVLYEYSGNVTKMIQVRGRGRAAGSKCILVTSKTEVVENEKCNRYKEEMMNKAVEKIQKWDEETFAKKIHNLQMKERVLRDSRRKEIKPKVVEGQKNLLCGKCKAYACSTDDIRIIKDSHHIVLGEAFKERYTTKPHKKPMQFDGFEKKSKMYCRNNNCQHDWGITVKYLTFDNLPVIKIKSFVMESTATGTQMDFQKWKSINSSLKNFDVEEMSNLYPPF

[2] = target: T2, Flag-tagged duck RIG-I (Flag-duRIG-I) (duck) (UniProt D3TI84); test: co-IP; HEK-293T cells cotransfected; lysate in Co-IP buffer (Beyotime) with protease inhibitors; immunoprecipitated with anti-Flag antibody overnight at 4°C, protein A/G plus agarose, 4 washes; immunoblot
T2 sequence: T1 sequence

[3] = target: Flag-tagged duck TRIM25 (Flag-duTRIM25) (duck); test: as above
[4] = target: Flag-tagged duck TRIM35 (Flag-duTRIM35) (duck); test: as above

- binding [1]: binds
Molecule: HA-tagged duck TRIM25 (HA-duTRIM25)

- binding [2]: binds
Molecule: HA-tagged duck TRIM35 (HA-duTRIM35)

- binding [3]: binds
- binding [4]: binds
B1: HA-tagged duck RIG-I (HA-duRIG-I) (protein, UniProt D3TI84 1-933)
chain: T1 sequence
